Data reported in article PMC7730438 (Scientific Reports, 2020).
Starred links: 1 amine or outer side, 2 acyl side, 3 side chain; linkers in the order of their positions; H or OH if unused. Positions of bridges follow the written chain, without caps; N, C: chain ends. Non-standard residues stand in square brackets, D forms with d. Phe(4-F) = N[C@@H](Cc1ccc(F)cc1)C(=O)O; X1 = CCCCCCC[C@H](N[*:1])C(=O)[*:2]; Nle = CCCC[C@H](N)C(=O)O; X2 = C(C[*:1])C[*:2]; βAla = NCCC(=O)O

Test: peptide made by a vendor (Fmoc solid-phase peptide synthesis; HOAt/EDC (main-chain cyclisation))
Conditions: cyclisation step, analytical RP-HPLC

Substance	final HPLC purity [%]
cyclo([βAla]P[Nle]C[X1]S[Phe(4-F)]DPW[dC]) (linker 4-11 via X2; SMILES CCCCCCC[C@@H]1NC(=O)[C@@H]2CSCCCSC[C@@H](NC(=O)[C@H](Cc3c[nH]c4ccccc34)NC(=O)[C@@H]3CCCN3C(=O)[C@H](CC(=O)O)NC(=O)[C@H](Cc3ccc(F)cc3)NC(=O)[C@H](CO)NC1=O)C(=O)NCCC(=O)N1CCC[C@H]1C(=O)N[C@@H](CCCC)C(=O)N2)	95.32
c(βAla-Pro-Nle-Cys-Anon-Ser-4fF-Asp-Pro-Trp-^DCys)	95.54
